The values that follow come from PMC4906244.

For data set [1], the system named is His6-ComPsub (Neisseria subflava NJ9703). Put plainly: NMR titration (1H-15N HSQC CSP). Conditions: 100 uM protein, 4-120 uM DNA; NMR: 50 mM sodium phosphate pH 6, 50 mM NaCl, 10% D2O (295 K stated for the structure spectra); recombinant protein; protein details: N-terminal non-cleavable His6.
The test system is the same in data set [2]. Put plainly: SPR. The following applies: 10-200 uM protein, SPR: 20 mM Tris pH 8, 150 mM NaCl, 0.05% Tween 20, 25 C, recombinant protein, protein details: N-terminal non-cleavable His6.
The subject of data set [3] is MBP-ComPsub (Neisseria subflava NJ9703). Put plainly: competition EMSA. The following applies: 2.5 mM Mg2+, EMSA: 20 mM Tris-Cl pH 8, 50 mM NaCl, ambient temperature, recombinant protein.
For data set [4] the test system is unchanged. Put plainly: EMSA. Conditions: 0.8 uM protein, 2.5 mM Mg2+, EMSA: 20 mM Tris-Cl pH 8, 50 mM NaCl, ambient temperature, recombinant protein, label: biotin on DUSvar11b strand (S9). (Mobility shift assays separate free from complexed probe on a gel.)

For at least one entry, the source does not settle the construct or the ends of the probe. For part of these data: Negatives hold for the conditions tested. For part of these data: A weaker result is weaker than the reference pair of the same experiment.

Regarding “CAGGCCGTCTGAAC (double strand) [DUSvar1bis ds primer (NMR)]”, in data set [1], the binding result is reported as “binds”. “TGACCAAGGCCTGTCATCAAAC (double strand) [SDU ds primer (biotinylated)]”: the binding result in data set [2] (much lower Req than DUSvar1, label: biotin on SDU1b strand (S13)) is listed as “binds more weakly”. For the sequence “TGACCACGACTTATAATCAAAC (double strand) [SUD ds primer (biotinylated)]”, in data set [2] (much lower Req than DUSvar1, not saturating, label: biotin on SUD1b strand (S11)), the binding result was “binds more weakly”.

As for “TGACCACGACTTATAATCAAAC (double strand) [SUD ds primer (unlabeled)]”, the binding result in data set [3] (vs biotinylated DUSvar1, no effect at 0.7-180 pmol) is recorded as “no binding”.

As for “TGACCAGGCCGTCTGAACAAAC (double strand) [DUSvar1 ds primer (biotinylated)]”, the binding result in data set [4] is on record as “binds”. Take “TGACCAGGCCGTCTGAACAAAC (double strand) [DUSvar1 ds primer (unlabeled)]”: the binding result in data set [3] (vs biotinylated DUSvar1, 0.7-180 pmol competitor) is “binds”.
